Assay results published in publication PMC2671169.
Results are given in words; binding and its absence hold for the method and conditions named. Some binding calls cover weakened binding; strength is not graded here.

Biological target: Argonaute 2 (Ago2) (human (endogenous in HEK293)), Q9UKV8
Assay: capture of RISC on immobilised oligonucleotides, Western blot; biotinylated 2′ FU, 2′ FC oligonucleotides complementary to the sense or antisense strand of the siRNA on Dynabeads M280, incubated with lysate of siRNA-transfected HEK293 cells (siRNA1 or siRNA-caspase9; with or without cotransfected Flag-TRBP) for 1 h at 25°C; 150 mM NaCl, 0.5% NP-40, 2 mM MgCl2, 2 mM CaCl2, 20 mM Tris pH 7.5; bound proteins blotted …
Conditions: remark: other sources report otherwise

B1: TAR RNA-binding protein (TRBP), Q15633 1-366 (protein)
chain: MSEEEQGSGTTTGCGLPSIEQMLAANPGKTPISLLQEYGTRIGKTPVYDLLKAEGQAHQPNFTFRVTVGDTSCTGQGPSKKAAKHKAAEVALKHLKGGSMLEPALEDSSSFSPLDSSLPEDIPVFTAAAAATPVPSVVLTRSPPMELQPPVSPQQSECNPVGALQELVVQKGWRLPEYTVTQESGPAHRKEFTMTCRVERFIEIGSGTSKKLAKRNAAAKMLLRVHTVPLDARDGNEVEPDDDHFSIGVGSRLDGLRNRGPGCTWDSLRNSVGEKILSLRSCSLGSLGALGPACCRVLSELSEEQAFHVSYLDIEELSLSGLCQCLVELSTQPATVCHGSATTREAARGEAARRALQYLKIMAGSK
In the case of B1, the binding is reported as “binds”.
